PubChem BioAssay AID1159578 – Peter MacCallum Cancer Centre, 2015

- Screen: 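Knock-downs that alter how fast lymphatic endothelial cells migrate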 (primary screen)
- Cells: human lymphatic endothelial cells
- Knock-down reagent: siRNA pool against human genes, 40 nM
- Duration: 48 h after transfection
- Read-out: 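Cells stained with dye and imaged after a scratch; covered wound area and nuclei counted, duplicates averaged, migration set against mock wells and turned into a robust z-score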
- Reading the numbers: migration robust z-score: higher = faster migration into the scratch; migration relative to mock: higher = more scratch area covered than mock; nuclei per well: higher = more cells in the well
- Call rule: 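Pools averaging fewer than 3300 nuclei are never called; remaining pools count as changed when migration robust z lies outside -2 to 2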
- Meaning of the calls: active = migration changed; inactive = no migration change, or too few cells
The deposit covers about 18,000 reagents; shown is an unselected part. About 1,030 of them (5.7%) were called active. 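Inactive calls also include pools with fewer than 3300 nuclei, whose migration was not assessed.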 Raw values are not corrected between plates. Entries without a mark were called inactive.

no.	gene symbol	migration robust z-score	migration class with cell-count check	migration relative to mock	nuclei per well, duplicate mean
1	ZNF34 (GeneID 80778)	0.52	migration z between -2 and 2; enough cells	1.02	5074
2	WRAP53 (GeneID 55135)	-0.56	migration z between -2 and 2; enough cells	0.74	6224
3	OR8G2P (GeneID 26492)	-0.01	migration z between -2 and 2; enough cells	0.88	5998
4	MYOF (GeneID 26509)	-1.88	migration z between -2 and 2; enough cells	0.4	4181
5	CILP2 (GeneID 148113)	0	migration z between -2 and 2; enough cells	0.88	5185
6	SPINDOC (GeneID 144097)	-1.07	migration z between -2 and 2; enough cells	0.6	4760
7	EPHX4 (GeneID 253152)	0.13	migration z between -2 and 2; enough cells	0.83	4709
8	PSMD8 (GeneID 5714)	-0.19	migration z between -2 and 2; enough cells	0.84	6124
9	F7 (GeneID 2155)	-0.7	migration z between -2 and 2; enough cells	0.67	5426
10	INTS8 (GeneID 55656)	0.38	migration z between -2 and 2; enough cells	0.99	6308
11	DUSP13B (GeneID 51207)	0.05	migration z between -2 and 2; enough cells	0.82	4850
12	ZFAND5 (GeneID 7763)	-1.56	migration z between -2 and 2; enough cells	0.5	5200
13	AMMECR1L (GeneID 83607)	0.17	migration z between -2 and 2; enough cells	0.93	5607
14	ST6GALNAC3 (GeneID 256435)	1.29	migration z between -2 and 2; enough cells	1.05	4589
15	ARHGAP31 (GeneID 57514)	-1.03	migration z between -2 and 2; enough cells	0.62	6842
16	PRPS1L1 (GeneID 221823)	-1.25	migration z between -2 and 2; enough cells	0.56	5284
17	COL11A2 (GeneID 1302)	-0.3	migration z between -2 and 2; enough cells	0.81	4070
18	CABIN1 (GeneID 23523)	0.54	migration z between -2 and 2; enough cells	1.02	5483
19	GRAMD2B (GeneID 65983)	0.73	migration z between -2 and 2; enough cells	1.07	5523
20	HSPA12A (GeneID 259217)	1.15	migration z between -2 and 2; enough cells	1.19	6240
21	AHCYL2 (GeneID 23382)	-0.28	migration z between -2 and 2; enough cells	0.75	5997
22	RXFP3 (GeneID 51289)	-2.05 (active)	migration z below -2; enough cells	0.41	7184
23	ANKHD1 (GeneID 54882)	1.92	migration z between -2 and 2; enough cells	1.38	4168
24	ACTRT1 (GeneID 139741)	0.82	migration z between -2 and 2; enough cells	1.09	5700
25	NLRP14 (GeneID 338323)	-0.52	migration z between -2 and 2; enough cells	0.7	3510
26	VTA1 (GeneID 51534)	-1.26	migration z between -2 and 2; enough cells	0.56	6242
27	HSD3B1 (GeneID 3283)	0.55	migration z between -2 and 2; enough cells	0.91	6022
28	KIR3DX1 (GeneID 90011)	1.88	migration z between -2 and 2; enough cells	1.38	7002
29	MKNK2 (GeneID 2872)	1.48	migration z between -2 and 2; enough cells	1.09	5756
30	TUBA1C (GeneID 84790)	-1.91	under 3300 nuclei; migration not judged	0.38	2701
31	UBR2 (GeneID 23304)	-0.6	migration z between -2 and 2; enough cells	0.69	5680
32	SLC25A37 (GeneID 51312)	-1.79	migration z between -2 and 2; enough cells	0.46	5304
33	IQGAP3 (GeneID 128239)	2.16 (active)	migration z above 2; enough cells	1.44	5616
34	ZNF211 (GeneID 10520)	-1.85	migration z between -2 and 2; enough cells	0.4	5409
35	RNF149 (GeneID 284996)	1.06	migration z between -2 and 2; enough cells	1.01	5334
36	ZC3H3 (GeneID 23144)	0.78	migration z between -2 and 2; enough cells	1.08	6268
37	FNDC7 (GeneID 163479)	0.9	migration z between -2 and 2; enough cells	1.12	7134
38	IL1R2 (GeneID 7850)	1.38	migration z between -2 and 2; enough cells	1.07	6350
39	LRATD2 (GeneID 157638)	-0.68	migration z between -2 and 2; enough cells	0.7	4462
40	MSX2 (GeneID 4488)	-1.71	migration z between -2 and 2; enough cells	0.48	6545
41	CEP41 (GeneID 95681)	-1.87	migration z between -2 and 2; enough cells	0.44	4136
42	RTEL1 (GeneID 51750)	-0.68	migration z between -2 and 2; enough cells	0.71	7440
43	FAM161B (GeneID 145483)	-0.58	migration z between -2 and 2; enough cells	0.74	4561
44	DLG3 (GeneID 1741)	0.29	migration z between -2 and 2; enough cells	0.86	4693
45	GDPD4 (GeneID 220032)	-1.93	migration z between -2 and 2; enough cells	0.38	3425
46	KLF8 (GeneID 11279)	0.01	migration z between -2 and 2; enough cells	0.88	5616
47	UBLCP1 (GeneID 134510)	-0.72	migration z between -2 and 2; enough cells	0.66	4998
48	ELOB (GeneID 6923)	-0.21	migration z between -2 and 2; enough cells	0.76	5453
49	SOX5 (GeneID 6660)	0.71	migration z between -2 and 2; enough cells	1.06	4866
50	CCDC90B (GeneID 60492)	-0.3	migration z between -2 and 2; enough cells	0.81	4083
51	ZNF677 (GeneID 342926)	0.51	migration z between -2 and 2; enough cells	1.02	5580
52	VAX2 (GeneID 25806)	1.58	migration z between -2 and 2; enough cells	1.11	6161
53	ATG14 (GeneID 22863)	-0.7	migration z between -2 and 2; enough cells	0.7	6166
54	TMLHE (GeneID 55217)	0.83	migration z between -2 and 2; enough cells	0.96	5332
55	ABHD13 (GeneID 84945)	0.78	migration z between -2 and 2; enough cells	0.96	6188
56	B3GALT6 (GeneID 126792)	-1.29	migration z between -2 and 2; enough cells	0.55	5823
57	SCHIP1 (GeneID 29970)	-0.05	migration z between -2 and 2; enough cells	0.88	5816
58	INTS3 (GeneID 65123)	-1.27	migration z between -2 and 2; enough cells	0.55	5322
59	MUL1 (GeneID 79594)	1.17	migration z between -2 and 2; enough cells	1.03	6146
60	DYNLL1 (GeneID 8655)	0.91	migration z between -2 and 2; enough cells	0.98	5543
61	SINHCAF (GeneID 58516)	0.42	migration z between -2 and 2; enough cells	0.99	5499
62	CAMKK2 (GeneID 10645)	-0.24	migration z between -2 and 2; enough cells	0.76	7957
63	RASL12 (GeneID 51285)	-1.64	migration z between -2 and 2; enough cells	0.49	3442
64	C18orf32 (GeneID 497661)	3.04 (active)	migration z above 2; enough cells	1.67	5854
65	IRF8 (GeneID 3394)	-3.13 (active)	migration z below -2; enough cells	0.2	4754
66	SLC6A4 (GeneID 6532)	0.83	migration z between -2 and 2; enough cells	0.97	5450
67	SCOC (GeneID 60592)	0.64	migration z between -2 and 2; enough cells	1.05	6726
68	ATP1B3 (GeneID 483)	-4.46	under 3300 nuclei; migration not judged	-0.06	1896
69	CPNE6 (GeneID 9362)	-0.48	migration z between -2 and 2; enough cells	0.76	5494
70	NCMAP (GeneID 400746)	-0.51	migration z between -2 and 2; enough cells	0.75	6831
71	NCSTN (GeneID 23385)	-0.78	migration z between -2 and 2; enough cells	0.68	5984
72	KBTBD6 (GeneID 89890)	0.32	migration z between -2 and 2; enough cells	0.98	6320
73	OR2T29 (GeneID 343563)	-1.08	migration z between -2 and 2; enough cells	0.6	5130
